For two molecules, binding results are on record in doi:10.1101/2024.09.30.615857.

Results are given in words; binding and its absence hold for the method and conditions named. Some entries that bind do so weakly or less than the wild type.

The experiment has as its target T1, cognate myosin heavy chain fragment (comprising residues 709-840) (UniProt P05661).
T1 sequence: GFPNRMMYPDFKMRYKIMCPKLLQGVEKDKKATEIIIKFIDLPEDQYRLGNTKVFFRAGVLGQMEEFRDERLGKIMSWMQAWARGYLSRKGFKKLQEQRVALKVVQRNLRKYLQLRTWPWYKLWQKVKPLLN
Put plainly: co-expression and co-purification.

B1: Mlc1 (myosin light chain) (protein, UniProt P06742 1-155)
chain: MADVPKREVENVEFVFEVMGSPGEGIDAVDLGDALRALNLNPTLALIEKLGGTKKRNEKKIKLDEFLPIYSQVKKEKEQGCYEDFIECLKLYDKEENGTMLLAELQHALLALGESLDDEQVETLFADCMDPEDDEGFIPYSQFVQRLMSDPVVFD
With B1, the binding entry was “binds”.

B2: Mlc2 (myosin light chain) (protein, UniProt P18432 1-222)
chain: MADEKKKVKKKKTKEEGGTSETASEAASEAATPAPAATPAPAASATGSKRASGGSRGSRKSKRAGSSVFSVFSQKQIAEFKEAFQLMDADKDGIIGKNDLRAAFDSVGKIANDKELDAMLGEASGPINFTQLLTLFANRMATSGANDEDEVVIAAFKTFDNDGLIDGDKFREMLMNFGDKFTMKEVDDAYDQMVIDDKNQIDTAALIEMLTGKGEEEEEEAA
On to B2, for which the binding result was “binds”.
